Numbering of substitutions follows the chain as printed. These are yes or no findings as the source states them, for the method shown. In cells and extracts the contact can be indirect. Some entries that bind do so weakly or less than the wild type. Where a sequence is shown, tags or fusion partners need not be part of it.
Experiments:
[1] = target: T1, HA-Amot-p130^S176E (mouse (by the paper's numbering: Ser176 in mouse, Ser175 in human)) (UniProt Q8VHG2); experiment: co-IP; HEK293-shAmot cells co-transfected with an Amot-p130 allele (WT, S176A, S176E or PY motif mutants) and tagged partners; total RIPA lysate, IP with tag or protein antibodies overnight, immunoblot
T1 sequence: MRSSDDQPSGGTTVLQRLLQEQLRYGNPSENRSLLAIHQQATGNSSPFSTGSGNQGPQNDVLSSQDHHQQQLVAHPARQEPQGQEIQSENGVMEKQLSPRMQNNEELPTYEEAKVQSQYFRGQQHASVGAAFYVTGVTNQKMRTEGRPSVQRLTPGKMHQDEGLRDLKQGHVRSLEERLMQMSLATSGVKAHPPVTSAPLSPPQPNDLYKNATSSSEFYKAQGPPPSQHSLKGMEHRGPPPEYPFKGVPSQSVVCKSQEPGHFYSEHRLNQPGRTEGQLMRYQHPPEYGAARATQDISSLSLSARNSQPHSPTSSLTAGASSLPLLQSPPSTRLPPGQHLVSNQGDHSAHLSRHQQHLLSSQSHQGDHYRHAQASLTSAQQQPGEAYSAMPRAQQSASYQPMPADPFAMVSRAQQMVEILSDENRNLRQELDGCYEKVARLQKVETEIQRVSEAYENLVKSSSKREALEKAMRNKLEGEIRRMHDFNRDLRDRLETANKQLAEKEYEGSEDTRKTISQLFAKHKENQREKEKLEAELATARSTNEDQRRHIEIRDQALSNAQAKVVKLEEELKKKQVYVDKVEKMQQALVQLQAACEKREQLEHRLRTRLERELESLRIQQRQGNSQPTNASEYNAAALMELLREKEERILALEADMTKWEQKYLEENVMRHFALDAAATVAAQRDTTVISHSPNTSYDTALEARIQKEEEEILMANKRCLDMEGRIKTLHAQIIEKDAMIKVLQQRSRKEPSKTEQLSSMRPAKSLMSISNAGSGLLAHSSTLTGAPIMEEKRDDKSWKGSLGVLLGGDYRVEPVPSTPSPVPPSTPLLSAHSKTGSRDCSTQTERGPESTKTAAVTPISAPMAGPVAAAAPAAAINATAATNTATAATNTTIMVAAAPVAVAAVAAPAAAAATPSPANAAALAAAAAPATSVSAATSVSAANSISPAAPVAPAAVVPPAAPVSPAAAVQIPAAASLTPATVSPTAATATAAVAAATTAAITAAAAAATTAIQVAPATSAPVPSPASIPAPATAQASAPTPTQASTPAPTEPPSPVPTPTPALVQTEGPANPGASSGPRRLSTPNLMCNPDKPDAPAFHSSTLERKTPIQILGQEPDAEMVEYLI

Sequences of proteins named here, by UniProt entry; tags and fusion partners are left off.
UniProt P46937: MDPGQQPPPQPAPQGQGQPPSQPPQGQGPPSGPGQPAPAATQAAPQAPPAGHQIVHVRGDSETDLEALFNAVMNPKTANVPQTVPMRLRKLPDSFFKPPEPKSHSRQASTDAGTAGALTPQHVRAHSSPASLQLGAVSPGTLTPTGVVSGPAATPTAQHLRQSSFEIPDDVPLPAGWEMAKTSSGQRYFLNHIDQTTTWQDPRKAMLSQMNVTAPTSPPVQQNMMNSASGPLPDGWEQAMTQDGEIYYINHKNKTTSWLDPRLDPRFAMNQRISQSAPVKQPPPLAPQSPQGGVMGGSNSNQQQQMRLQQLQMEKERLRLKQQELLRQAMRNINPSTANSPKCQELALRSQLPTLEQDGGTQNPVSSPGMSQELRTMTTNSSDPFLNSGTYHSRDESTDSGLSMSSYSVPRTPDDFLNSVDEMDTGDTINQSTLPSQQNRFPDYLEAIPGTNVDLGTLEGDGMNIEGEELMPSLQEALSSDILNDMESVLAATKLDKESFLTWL

[2] = target: T2, HA-Amot-p130^S176A (mouse (by the paper's numbering: Ser176 in mouse, Ser175 in human)) (UniProt Q8VHG2); experiment: as above
T2 sequence: T1 sequence with E176A

- binding [1]: binds
- binding [2]: binds
Substance: V5-tagged YAP (from UniProt P46937 1-504)

From publication PMC5415356
